# Measurements as given in PubChem BioAssay AID540303 (National Center for Advancing Translational Sciences (NCATS), 2011).
# The whole screen tested about 330,000 compounds, of which about 1,000 (0.3%) were called active. This list was built around the results that the source calls inconclusive (neither active nor inactive); the mix of calls is not that of the screen. Calls come from the whole dose curve; as a rule, active = well fitted inhibition curve with a large enough effect; inconclusive = small, poorly fitted or top-dose-only effect; inactive = no such curve, though single readings can be large or run the other way; tested in mouse RAW 264.7 cells. Potencies of inconclusive entries are doubtful fits and often do not repeat.
# Assay: qHTS for Inhibitors of Cell Surface uPA Generation; note: nearly all actives have a fitted effect of over 55% in size
# Conditions: cell surface uPA generation assay; series mostly up to 38.3 µM
# How it was run: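 ATP-Lite luminescence in RAW 264.7 cells after 24 h of exposure to compound, tested up to 38.3 uM final in 1:5 steps. Raised ATP reflects inhibition of uPA-dependent LF delivery to the cytoplasm.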
# Potency is the fitted concentration of half-maximal effect.
row,SMILES,Potency
1,CC1CCN(C(=O)c2ccc(NC3=C(Cl)C(=O)N(Cc4ccccc4)C3=O)cc2)CC1,"inconclusive: 7.08 µM [inhibitor, partial curve, poor fit]"
2,C[C@H](CO)N1C[C@H](C)[C@@H](CN(C)S(=O)(=O)c2ccc(F)cc2)Oc2c(NC(=O)Nc3ccc(C(F)(F)F)cc3)cccc2C1=O,"inconclusive: 12.6 µM [inhibitor, single point]"
3,CC(C)CNC(=O)C(=O)NC1CCCC1,inactive
4,CCOc1ccccc1NC(=S)Nn1cnnc1,inactive
5,COc1ccc(CNc2ccc(Br)cc2)cc1,inactive
6,CCCOc1ccc(C(=O)Nc2ccc3c(c2)OCO3)cc1,"inconclusive: 3.16 µM [inhibitor, partial curve]"
7,Cc1ccc(Cn2ccc(NC(=O)CCSc3nc(-c4ccco4)cc(C(F)(F)F)n3)n2)cc1,inactive
8,Cc1ccc2c(c1)[C@H]1[C@H](CO2)[C@H](c2ccccc2)[C@]2(C)C(=O)Nc3ccccc3C(=O)N12,"inconclusive: 8.91 µM [inhibitor, single point]"
9,COc1ccc(/C=N/Nc2nc(Nc3ccccc3)nc(N3CCCCC3)n2)cc1OC,inactive
10,COc1cc(SC)ccc1C(=O)Nc1cc(C)ccn1,"inconclusive: 3.98 µM [inhibitor, partial curve, poor fit]"
11,Cc1csc2c(N3CCN(C(=O)c4ccc(C(C)(C)C)cc4)CC3)ncnc12,inactive
12,O=C(COc1ccc([N+](=O)[O-])cc1)Nc1ccc(C(=O)Nc2ccccc2C(=O)O)cc1,inactive
13,CNC(=S)N(CCc1c(C)[nH]c2ccc(C)cc12)Cc1ccc(OC)c(OC)c1,inactive
14,CCOc1ccc2nc(N(CCN(C)C)C(=O)c3cc4ccccc4cc3OC)sc2c1,"inconclusive: 7.94 µM [inhibitor, partial curve]"
15,Cc1onc(-c2ccccc2Cl)c1C(=O)OCc1cnc(Cl)s1,"inconclusive: 3.98 µM [inhibitor, partial curve, poor fit]"
16,Cc1ccc(CNC(=O)C2CC3Cn4c(nc5cc6ccccc6cc54)C3N2C)o1 (configuration not stated),inactive
17,CCCC(=O)N(c1ccc2oc(=O)sc2c1)S(=O)(=O)c1cccs1,inactive
18,CCOC(=O)CCNC(=O)N1CCCC(N(C)CCc2ccccc2)C1 (configuration not stated),"inconclusive: 3.55 µM [inhibitor, partial curve, poor fit]"
19,C=CCNC(=S)N/N=C(\C)c1cccc(OC)c1,"inconclusive: 12.6 µM [inhibitor, partial curve, poor fit]"
20,COc1ccc(-c2nc(CN3CCN(c4ncnc5ccccc45)CC3)c(C)o2)c(OC)c1,"inconclusive: 12.6 µM [inhibitor, single point]"
21,O=C1c2ccccc2C(Nc2ccc(F)c(Cl)c2)N1Cc1ccco1 (configuration not stated),"inconclusive: 8.91 µM [inhibitor, single point]"

row,SMILES,Potency
1,O=C(/C=C/c1cccc([N+](=O)[O-])c1)NC(=S)Nc1ccc(CN2CCOCC2)cc1,"inconclusive: 2.82 µM [inhibitor, partial curve, poor fit]"
2,O=C(Nc1ccccc1Cl)c1cc2ccccc2o/c1=N\O,inactive
3,O=C(Nc1nc2ccccc2[nH]1)C1CCCO1 (configuration not stated),inactive
4,CSCCC(NC(=O)c1ccc(Cl)c([N+](=O)[O-])c1)C(=O)N1CCN(C/C=C/c2ccccc2)CC1 (configuration not stated),"inconclusive: 12.6 µM [inhibitor, single point]"
5,Cc1cn([C@H](C(=O)NCCCCCCCCCCC(=O)N2CCNCC2)[C@@H](C)O)nn1,"inconclusive: 2 µM [inhibitor, full curve, poor fit]"
6,O=C(CCC(=O)N1CCOc2ccccc21)NCCN1CCOCC1,"inconclusive: 7.94 µM [inhibitor, partial curve, poor fit]"
7,CCOC(=O)C1(CCc2ccccc2)CCN(Cc2cc(OC)c(OC)cc2OC)CC1,"inconclusive: 12.6 µM [inhibitor, single point]"
8,Cc1ccc(NC(=O)c2ccc(Cl)cc2Cl)cc1O,"inconclusive: 12.6 µM [inhibitor, single point]"
9,O=C(/C=C/c1ccco1)NC(=S)Nc1ccccc1,"inconclusive: 8.91 µM [inhibitor, single point]"
10,CC(C)C[C@H](NC(=O)c1[nH]cnc1C(=O)N[C@@H](Cc1ccccc1)C(=O)OC(C)(C)C)C(=O)OC(C)(C)C,"inconclusive: 12.6 µM [inhibitor, single point]"
11,Cn1c2cc(C#N)sc2c2cnn(Cc3ccc(F)cc3)c(=O)c21,inactive
12,O=C(C1=C[C@H](c2csc3ccccc23)C[C@H](OCc2ccc(CO)cc2)O1)N1CCN(Cc2ccc3c(c2)OCO3)CC1,"inconclusive: 12.6 µM [inhibitor, single point]"
13,Cc1ccc(O)c(/C=N/NC(=O)CN2CCCC2)c1,"inconclusive: 10 µM [inhibitor, partial curve, poor fit]"
14,O=C(NNC(=O)c1ccccc1OCc1ccc(F)cc1)c1ccccc1O,"inconclusive: 12.6 µM [inhibitor, single point]"
15,Fc1ccc(C2=CC(c3ccco3)n3ncnc3N2)cc1 (configuration not stated),inactive
16,CCN(CC)C(=O)[C@H]1CC(CC(=O)NCCC2=CCCCC2)C(=O)N2CCc3c([nH]c4ccc(OC)cc34)[C@]12C (some centres not stated),"inconclusive: 15.8 µM [inhibitor, partial curve, poor fit]"
17,O=C(Nc1ccccn1)C1CCN(S(=O)(=O)c2ccc3c(c2)OCCO3)CC1,"inconclusive: 8.91 µM [inhibitor, partial curve, poor fit]"
18,Cc1ccc(S(=O)(=O)N2C[C@@H]3[C@H]4CC[C@H](C4)[C@@H]3[C@@H](C)[C@H]2c2ccco2)cc1,"inconclusive: 28.2 µM [inhibitor, single point]"
19,CC1CCc2sc(C(=O)N3CCC(C(N)=O)CC3)cc2C1 (configuration not stated),"inconclusive: 28.2 µM [inhibitor, single point]"
20,C#CCn1c(=NC(=O)c2ccc(Br)s2)sc2cccc(OC)c21,"inconclusive: 8.91 µM [inhibitor, single point]"
21,C1=C[C@@H]2CCN(Cc3ccccc3)Cc3cccc(c32)C1,"inconclusive: 11.2 µM [inhibitor, single point]"

# Some of the entries so far, as tab-separated lines.
row	SMILES	Potency
19	CC1CCc2sc(C(=O)N3CCC(C(N)=O)CC3)cc2C1 (configuration not stated)	inconclusive: 28.2 µM [inhibitor, single point]
20	C#CCn1c(=NC(=O)c2ccc(Br)s2)sc2cccc(OC)c21	inconclusive: 8.91 µM [inhibitor, single point]
